Values quoted from earlier work as cited in patent US20180312651A1, “FOAMS AND ARTICLES MADE FROM FOAMS CONTAINING HCFO OR HFO BLOWING AGENTS” (HONEYWELL INTERNATIONAL INC., priority 2011, published 2018).
At least one structure is not confirmed: it was looked up by name or label, or the drawing left a doubt.

Conditions: cited from earlier work

SMILES	Flashpoint
CC(F)(F)Cl [142b, 1-chloro 1,1-difluoroethane]	None
CC(F)(Cl)Cl [141b, 1,1-dichloro-1-fluoroethane]	None
